Data source: PubChem BioAssay AID504744 (Drosophila RNAi Screening Center, 2011)

Aim: 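Find genes whose loss alters insulin-driven dAkt phosphorylation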 (primary screen)
Cell system: Drosophila Kc167 cells
Reagents: long dsRNA against Drosophila genes, 250 ng dsRNA per well of a 384-well plate
Duration: 3 days of knock-down, then overnight serum-free starvation before stimulation
Conditions: bovine insulin at 387 nM for 10 minutes after 12 h without serum
Measured: 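Per-well phospho-dAkt level from an in-cell fluorescent antibody stain, divided by a DNA-dye signal; log2 residuals turned into z-scores that take cell number into account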
Rule for the call: 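Under insulin, a gene counts as a hit if the average z-score of two replicates lies above 2.5 or below -2.5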
The screen tested about 23,000 reagents; shown is an unselected part of those that have a named target and a result. Of all reagents, 98 (0.43%) are marked active. 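Only hit calls are given; the phospho-dAkt signals, z-scores and hit direction were not deposited.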 A plus sign joins genes that one reagent is predicted to hit.

Knock-down of CG12099 [DRSC08253] gave: inactive. After knock-down of CG32712 [DRSC17820] the results were inactive. Cp36 (Chorion protein 36) [DRSC18452] showed inactive. Elp2 (Elongator complex protein 2) [DRSC06095] scored inactive. After knock-down of CG8260 [DRSC20098] the results were inactive. After knock-down of Pi4KIIalpha (Phosphatidylinositol 4-kinase II alpha) [DRSC12322] the results were inactive.

Against Pi4KIIalpha (Phosphatidylinositol 4-kinase II alpha) [DRSC12323], the entry reads inactive. Depletion of Alg12 (Alg12 alpha-1,6-mannosyltransferase) [DRSC16416] resulted in: inactive. Knock-down of CG15673 [DRSC04263] gave: inactive. sls (sallimus) [DRSC08528] scored inactive. sls (sallimus) [DRSC08540] scored inactive. Knock-down of sls (sallimus) [DRSC08670] came out at: inactive.

After knock-down of CG8303 [DRSC07140], the record shows inactive. CG10752 [DRSC09799] scored inactive. Against t-Grip91 (testis-specific gamma-tubulin ring protein 91) [DRSC01506] the deposit lists inactive. CG5921 [DRSC17431] scored inactive. After knock-down of CG5921 [DRSC18390], the screen gave inactive. Against CG14071 [DRSC02374], the entry reads inactive.

Depletion of CG31086 + CG31323 [DRSC14902] gave: inactive. With knock-down of CNT2 (Concentrative nucleoside transporter 2) [DRSC07073], the screen gave inactive. For Fatp3 (Fatty acid transport protein 3) [DRSC04366] the deposit lists inactive. Silencing of Ephrin [DRSC17165] resulted in: inactive. Depletion of CG13369 [DRSC18481] came out at: inactive. Against CG4116 [DRSC18348], the values are inactive.

For mbt (mushroom bodies tiny) [DRSC20348], the entry reads inactive. For IFT43 (Intraflagellar transport 43) [DRSC02892], the values are inactive. With knock-down of RhoGDI [DRSC10919], the record shows inactive. Against RpS14b (Ribosomal protein S14b) [DRSC18711], the entry reads inactive. Gbp2 (Growth-blocking peptide 2) [DRSC06069] gave inactive. After knock-down of mRpS10 (mitochondrial ribosomal protein S10) [DRSC15557], the record shows inactive.

Against CG15012 [DRSC08465] the deposit lists inactive. Fur1 (Furin 1) [DRSC13707] showed inactive. Fur1 (Furin 1) [DRSC16676] scored inactive. For Pldn (Pallidin) [DRSC10137], the entry reads inactive. Against cbt (cabut) [DRSC00655], the entry reads inactive. Silencing of CG15506 [DRSC15047] came out at: inactive.

Against CG5089 [DRSC06914] the deposit lists inactive. CG12071 [DRSC14471] gave inactive. Silencing of CG30031 + deltaTry + gammaTry [DRSC07622] came out at: inactive. CG15534 [DRSC15070] showed inactive. After knock-down of CG30495 [DRSC06703], the record shows inactive. For CG6421 [DRSC07420], the values are inactive.

After knock-down of nvy (nervy) [DRSC04705], the screen gave inactive. crp (cropped) [DRSC03515] showed inactive. Depletion of Tob (Transducer of ERBB2) [DRSC20294] came out at: inactive. IntS4 (Integrator 4) [DRSC17810] scored inactive. Depletion of brm (brahma) [DRSC11330] gave: inactive. Silencing of CG13738 [DRSC10065] resulted in: inactive.

After knock-down of Top1 (Topoisomerase 1) [DRSC20295] the results were inactive. Against Decay (Death executioner caspase related to Apopain/Yama) [DRSC16930], the values are inactive. Against CG6791 [DRSC16118] the deposit lists inactive. With knock-down of RpL37-1 (Ribosomal protein L37-1) [DRSC20149], the screen gave inactive. After knock-down of RpL37-1 (Ribosomal protein L37-1) [DRSC21646], the screen gave inactive. Depletion of Spase25 (Spase 25-subunit) [DRSC19776] came out at: inactive.

Silencing of Graf (GTPase regulator associated with FAK) [DRSC20131] gave: inactive. With knock-down of RpL5 (Ribosomal protein L5) [DRSC03801] the results were inactive. Hmbs (Hydroxymethylbilane synthase) [DRSC08632] showed inactive.
